PubChem BioAssay AID540256 (National Center for Advancing Translational Sciences (NCATS), 2011)
Out of some 300,000 compounds screened, about 3,700 (1.2%) were called active. The inconclusive results got no clear call from the source; some entries with a clear call stand among them for comparison. Calls come from the whole dose curve; tested in HEK293 cells. A potency beside an inconclusive call is a rough fit, not a confirmed value.

Assay: qHTS for Inhibitors of binding or entry into cells for Lassa Virus; note: nearly all actives have a fitted effect of over 50% in size
Conditions: Lassa virus pseudotype entry inhibition, cell reporter; activity change, negative = inhibition: at 37.9 µM (top of the series) unless noted
% is set by controls: 0 for no effect and ±100 for the full control effect; potency is the fitted concentration of half-maximal effect.

| Structure (SMILES) | Potency | activity change, negative = inhibition |
| --- | --- | --- |
| C=CCN(c1ccccc1)S(=O)(=O)c1cccc(C(=O)NCC2CCCO2)c1 (stereo unspecified) | inconclusive: 5.62 µM [inhibitor, full curve, poor fit] | – |
| COc1ccc(COC(=O)NN=C2C[C@@H](O)[C@@H](O)[C@@H]3[C@H]4C(=O)N(C[C@@H]5CCCO5)C(=O)[C@@H]4CC[C@H]23)cc1 | inconclusive: 0.596 µM [inhibitor, full curve, poor fit] | – |
| CC(C)(CNC(=O)Cc1ccc(NS(=O)(=O)c2cccc(C(F)(F)F)c2)cc1)N1CCOCC1 | inconclusive: 0.112 µM [inhibitor, full curve, poor fit] | – |
| CCOC(=O)C(Cc1nc(OCc2ccccc2)cc(OCc2ccccc2)n1)=NO | inconclusive: 10 µM [inhibitor, partial curve, poor fit] | – |
| Cc1cccc(C(=O)Nc2sc3c(c2C(=O)NCc2ccco2)CCCC3)c1 | inconclusive: 25.1 µM [activator, single point] | – |
| COc1ccccc1CCNC(=O)c1ccc(OC)c(OC2CCN(C(C)C)CC2)c1 | – | inactive: 16.9% |
| COc1cccc(CNC(=O)CCCNC(=O)c2ccc(Cl)cc2)c1 | – | inactive: 2.71% [at 46.1 µM] |
| Oc1cc2c(cc1CN1CCN(c3cccc(C(F)(F)F)c3)CC1)CCC2 | – | inactive: -1.63% |
| COc1ccccc1C1C=C(c2ccc(F)cc2)Nc2nc(-c3ccc(Cl)cc3)nn21 (stereo unspecified) | – | inactive: -15.2% [at 46.1 µM] |
| COc1ccc(NC(=O)C[C@H]2C(=O)N(c3ccccc3)C[C@@H]2CSC)cc1 | inconclusive: 11.2 µM [inhibitor, single point] | – |
| COC(=O)c1cccc(NC(=O)/C=C/c2ccc3c(c2)OCO3)c1 | active: 11.2 µM | – |
| Cc1ccccc1OCC(=O)Nc1ccncc1 | – | inactive: 5.56% |
| CCCNS(=O)(=O)c1ccc(OCC(=O)N2CCN(Cc3ccc4c(c3)OCO4)CC2)cc1 | inconclusive: 8.2 µM [inhibitor, partial curve, poor fit] | – |
| O=C(Nc1cnn(Cc2ccc(Cl)c(Cl)c2)c1)C12CC3CC(CC(C3)C1)C2 | inconclusive: 16.4 µM [inhibitor, partial curve, poor fit] | – |
| Cc1cccc[n+]1CC(=O)/C=C1\N(C)c2ccccc2C1(C)C | inconclusive: 29.1 µM [inhibitor, single point] | – |
| O=C(O)c1cccc(S(=O)(=O)Nc2ccc(OCc3ccccc3)cc2)c1 | – | inactive: 16.1% [at 46.1 µM] |
| Cc1nn(CC(=O)Nc2cccnc2)c(=O)c2ccccc12 | – | inactive: 1.37% |
| COc1ccc(NC(=O)CCOc2ccccc2)cc1 | inconclusive: 5.62 µM [activator, single point] | – |
| CCCCN1C(=O)c2[nH]nc(-c3ccccc3O)c2C1c1cccc(OCc2ccccc2)c1 (stereo unspecified) | active: 1.58 µM | – |
| O=C1NC2(CCCCC2)C(=O)N1CCS(=O)(=O)Oc1ccc(Br)cc1 | inconclusive: 2.82 µM [inhibitor, single point] | – |
| CC1(C)CCC(NC(=O)[C@@H](N)CCC(=O)O)CC1 | inconclusive: 16.4 µM [activator, single point] | – |
| C=CCSc1nsc(NC(=O)Nc2cccc(C(C)=O)c2)n1 | inconclusive: 17.8 µM [inhibitor, single point] | – |

Reformatted with bars between the fields: part of the list above.
Structure (SMILES) | Potency | activity change, negative = inhibition
C=CCN(c1ccccc1)S(=O)(=O)c1cccc(C(=O)NCC2CCCO2)c1 (stereo unspecified) | inconclusive: 5.62 µM [inhibitor, full curve, poor fit] | –
Cc1cccc(C(=O)Nc2sc3c(c2C(=O)NCc2ccco2)CCCC3)c1 | inconclusive: 25.1 µM [activator, single point] | –
COc1cccc(CNC(=O)CCCNC(=O)c2ccc(Cl)cc2)c1 | – | inactive: 2.71% [at 46.1 µM]
Cc1ccccc1OCC(=O)Nc1ccncc1 | – | inactive: 5.56%
CC1(C)CCC(NC(=O)[C@@H](N)CCC(=O)O)CC1 | inconclusive: 16.4 µM [activator, single point] | –

(listing goes on)

| Structure (SMILES) | Potency | activity change, negative = inhibition |
| --- | --- | --- |
| O=C(Nc1ccc(NC(=O)C2CC2)cc1)c1ccco1 | inconclusive: 5.62 µM [activator, single point] | – |
| O=C(O)c1cc(NC2(c3ccccc3)C(=O)c3ccccc3C2=O)ccc1Cl | inconclusive: 20 µM [activator, single point] | – |
| Clc1cccc(N2CCN(c3ncnc4c3nc3n4CCCCC3)CC2)c1 | inconclusive: 7.94 µM [inhibitor, partial curve, poor fit] | – |
| CN(C)c1ccc(/C=N/Nc2cc(N3CCOCC3)nc(N3CCOCC3)n2)cc1 | inconclusive: 35.5 µM [inhibitor, single point] | – |
| CCN(c1ccccc1)S(=O)(=O)c1ccc(OC)c(NC(=O)c2cc(F)c(F)c(F)c2F)c1 | – | inactive: -0.303% |
| CN(CCc1ccccn1)Cc1ccc(Cl)c(Cl)c1 | – | inactive: 17.8% [at 46.1 µM] |
| Cc1ccc2c(C)c(C(=O)N3CCN(c4ccncc4)CC3)oc2c1C | inconclusive: 35.5 µM [inhibitor, single point] | – |
| Fc1ccc(NC(=S)Nc2cc(-c3ccccc3)[nH]n2)cc1Cl | inconclusive: 11.2 µM [inhibitor, single point] | – |
| O=C(CCCOc1ccccc1)NC(=S)Nc1ccccc1 | inconclusive: 20 µM [inhibitor, single point] | – |
| CC1CCN(C(=O)c2ccc3c(c2)NC(=O)/C(=C/c2ccccc2)S3)CC1 | inconclusive: 7.94 µM [inhibitor, partial curve, poor fit] | – |
| COc1ccc(S(=O)(=O)NCCOc2ccccc2)cc1-n1cnnn1 | inconclusive: 5.62 µM [inhibitor, single point] | – |
| O=C(Nc1ccc2oc(-c3cccnc3)nc2c1)c1cccc(Br)c1 | – | inactive: 27.3% [at 46.1 µM] |
| COc1cccc(OC)c1C(=O)Nc1nc2ccc(S(C)(=O)=O)cc2s1 | inconclusive: 1.16 µM [inhibitor, single point] | – |
| Cc1ccccc1CN1CCN(C(=O)c2ccco2)CC1 | inconclusive: 35.5 µM [activator, single point] | – |
| Cc1cc(C)nc(SCC(=O)N/N=C\C(Br)=C\c2ccccc2)n1 | – | inactive: -7.47% |
| O=c1[nH]c(C2CCCN(S(=O)(=O)c3cccc(F)c3)C2)nc2c1nnn2Cc1ccccc1 (stereo unspecified) | inconclusive: 12.6 µM [inhibitor, partial curve, poor fit] | – |
| O=C(NCc1cn2ccsc2n1)Nc1cccc(Cl)c1 | inconclusive: 6.31 µM [activator, partial curve, poor fit] | – |
| COc1ccc(C2=CC(c3ccc(F)cc3)n3ncc(C(=O)Nc4ccc(C)cc4)c3N2)cc1 (stereo unspecified) | inconclusive: 14.1 µM [inhibitor, single point] | – |
| Cc1ccc(CN2CCc3nc(N4CCN(c5ncccn5)CC4)ncc3C2)cc1 | inconclusive: 35.5 µM [inhibitor, single point] | – |
| CCOC(=O)c1nc2ccccc2s1 | inconclusive: 11.2 µM [activator, partial curve] | – |
| O=C(c1ccccc1)n1ccc(-c2cnc(-c3ccccc3)s2)n1 | inconclusive: 1.12 µM [activator, partial curve, poor fit] | – |
| Cc1ccc(-c2nc3cc(C(C)C)ccc3o2)cc1NC(=O)c1cc2ccccc2o1 | inconclusive: 3.16 µM [activator, partial curve, poor fit] | – |

| Structure (SMILES) | Potency | activity change, negative = inhibition |
| --- | --- | --- |
| CCOc1ccccc1CNS(=O)(=O)c1ccc2c(c1)CCCN2C(C)=O | – | inactive: -16.8% [at 46.1 µM] |
| CCc1ccc(OCC(=O)N2c3ccccc3CCc3ccccc32)cc1 | inconclusive: 35.5 µM [inhibitor, single point] | – |
| Cc1cccc(NC(=O)CCCn2c(C)c3cnn(-c4ccccc4)c(=O)c3c2C)c1C | – | inactive: 3.28% [at 46.1 µM] |
| COc1ccc(CCN2C(=O)C(Oc3ccccc3C)C2c2ccc3c(c2)OCO3)cc1OC (stereo unspecified) | inconclusive: 35.5 µM [inhibitor, single point] | – |
| COCCNC(=O)/C(C#N)=C/c1cc(C)n(-c2ccc(C)cc2)c1C | inconclusive: 4.47 µM [inhibitor, full curve, poor fit] | – |
| O=C(O)C1CCNCC1 | inconclusive: 6.51 µM [activator, single point] | – |
| COc1cc(C2NC(=O)NC(O)(C(F)(F)F)C2C(=O)c2ccc(Cl)cc2)ccc1O (stereo unspecified) | inconclusive: 20.6 µM [inhibitor, single point] | – |
| CCc1ccc(OC(C)C(=O)Nc2ccc(S(=O)(=O)Nc3nccs3)cc2)cc1 (stereo unspecified) | inconclusive: 2.82 µM [inhibitor, partial curve, poor fit] | – |
| Cc1ccc(Cn2c(C(=O)O)c(CNCc3ccccc3Cl)c3ccc(C)cc32)cc1 | inconclusive: 1.58 µM [activator, full curve, poor fit] | – |
| c1cnc(SCCCOc2ccc3ccccc3c2)nc1 | inconclusive: 8.2 µM [activator, partial curve] | – |
| O=C(CNC(=O)c1cc2ccccc2o1)NCc1cccs1 | inconclusive: 25.1 µM [inhibitor, single point] | – |
| CCOC(=O)C1CCN(c2ncnc3c2c(-c2ccccc2)cn3-c2cccc(C)c2)CC1 | inconclusive: 2.51 µM [inhibitor, full curve] | – |
| Cc1ccc(S(=O)(=O)N2CCOCC2)cc1C(=O)Nc1cccc(S(=O)(=O)N2CCCC2)c1 | – | inactive: -21.6% |
| C=CCNCCCCOc1ccccc1-c1ccccc1 | inconclusive: 29.1 µM [inhibitor, single point] | – |
| Cc1ccc(C)c(OCCCNC2CCCC2)c1C | inconclusive: 35.5 µM [inhibitor, single point] | – |
| C=CCn1c(COc2ccc(F)cc2)nnc1SCC(=O)N1CC(=O)Nc2ccccc21 | – | inactive: 15% |
| Cn1cc(C(=O)Nc2ccc(Cl)c(Cl)c2)cn1 | inconclusive: 1.78 µM [activator, full curve, poor fit] | – |
| CC(=O)c1ccc(C(C)(C)c2ccc(C(C)=O)s2)s1 | inconclusive: 35.5 µM [inhibitor, single point] | – |
| CCOC(=O)C1CCCN(c2nc(C)nc3c2oc2ccccc23)C1 (stereo unspecified) | inconclusive: 0.206 µM [inhibitor, full curve, poor fit] | – |
| CCOc1ccc(OCCN2C(=O)NC(Cc3c[nH]c4ccccc34)C2=O)cc1 (stereo unspecified) | inconclusive: 18.3 µM [inhibitor, single point] | – |
| CC(=O)N1CCN(C(=O)CCc2nnc(CCCCc3ccccc3)o2)CC1 | – | inactive: 1.51% [at 46.1 µM] |
| CC[N+](CC)(CC)CCCOC(=O)C(O)(c1ccccc1)C1CCCCC1 (stereo unspecified) | inconclusive: 6.31 µM [inhibitor, single point] | – |
